Experimental data reported in the supplement of paper PMC8426693.
The other results are listed elsewhere or left out.

The compounds below were run on SARS-CoV-2 5_SL1 RNA (assay: NMR binding call after quantification (hit when 2 of 3 NMR criteria are met) (binary (1 = binding, 0 = not binding)); higher = binding). Conditions: RNA concentration 10 µM; fragment concentration 200 µM; 293 K.
With `CCc1noc(C)c1C(=O)Nc1cc(C)on1` the NMR binding call was 0. In the case of `Cn1cc(C(N)=O)c(C(F)F)n1`, the NMR binding call is reported as 0. `Cc1cc(C(=O)Nc2ccc3[nH]ccc3c2)no1` gave an NMR binding call of 0. Work on `CC(=O)NCc1cn[nH]c1` yielded an NMR binding call of 0. `Oc1ccc(CN2CCCC2)c2cccnc12` gave an NMR binding call of 0. Work on `Cc1ccccc1OCC(=O)Nc1ncccn1` yielded an NMR binding call of 0. Compound `O=C(Nc1ccc(-n2cnnn2)cc1)C1CCC1` has an NMR binding call of 0. With `CS(=O)(=O)Nc1ccc(CN)cc1.Cl` the NMR binding call was 0. `CC(C)C(=O)NCc1nc2ccccc2[nH]1` was tested, and the NMR binding call was 0. In the case of `CNC(=O)Nc1nc2ccc(OC)cc2s1`, the NMR binding call is reported as 1. `CC(=O)Nc1ccc2[nH]c(=O)[nH]c2c1` gave an NMR binding call of 0. `CNC(=O)c1nc2ccccc2c(=O)[nH]1` showed an NMR binding call of 0. `c1ccc(CNC2CCNC2)cc1` (stereo not given) gave an NMR binding call of 0. `CC1CCC(NC2CCC(O)CC2)CC1` (stereo not given) gave an NMR binding call of 0. For `Cc1cccc(CN2CCOCC2)c1`, the NMR binding call was 0. With `Cl.Cl.O=C(c1ccncc1)N1CCNCC1` the NMR binding call was 0. `COCC(=O)Nc1nc(-c2ccccc2)cs1` showed an NMR binding call of 0. With `Cc1ccc(N2CCN(C(N)=O)CC2)cc1` the NMR binding call was 0. Compound `O=C(NCCc1ccc(O)cc1)c1ccccn1` has an NMR binding call of 0. Work on `O=C1CN(C(=O)COc2ccccc2)CCN1` yielded an NMR binding call of 0. With `COc1ccc(CN2CCOCC2)cc1OC` the NMR binding call was 0. Work on `NCc1ccc(-c2cccs2)cc1` yielded an NMR binding call of 0. In the case of `CC1CCCN(C(=O)CO)C1` (stereo not given), the NMR binding call is reported as 0. Work on `O=C(NO)c1ccc2ccccc2n1` yielded an NMR binding call of 0. With `COC(=O)C1CCN(CC(N)=O)CC1` the NMR binding call was 0. `CN(C)Cc1nc(C2(N)CCCC2)no1` gave an NMR binding call of 0. Compound `Cc1ccc(NC(=O)C2CCCO2)nc1` (stereo not given) has an NMR binding call of 0. Compound `CS(=O)(=O)c1nccn1Cc1cscn1` has an NMR binding call of 0. `CC(CO)(CO)NC(=O)Nc1ccccc1` was tested, and the NMR binding call was 0. In the case of `CN1CCN(c2ccc(C#N)cc2)CC1`, the NMR binding call is reported as 0. `CC(=O)c1ccc(OC(F)F)cc1` was tested, and the NMR binding call was 0. With `Cc1ccc(OCC(=O)Nc2cc(C)on2)cc1` the NMR binding call was 0. With `Cl.NC1CCN(S(=O)(=O)c2ccccc2)C1` (stereo not given) the NMR binding call was 0. `Cc1cc(CN(C)C(=O)NC2CC2)no1` showed an NMR binding call of 0. `CC(C)NCc1ccc(N(C)C)cc1` was tested, and the NMR binding call was 0. `CC(=O)Nc1ccc(NC(=O)C2CC2(C)C)cc1` (stereo not given) gave an NMR binding call of 0. Work on `CCOC(=O)c1sc(N(C)C(C)=O)nc1C` yielded an NMR binding call of 0. In the case of `Cc1cc(N2CCNCC2)nc(C)n1`, the NMR binding call is reported as 0. Compound `CC(=O)Nc1cc(C)n[nH]1` has an NMR binding call of 0. In the case of `OCc1ccc(-n2cnc3ccccc32)cc1`, the NMR binding call is reported as 0.

The compounds below were run on SARS-CoV-2 5_SL1234 RNA in the same assay as above. Conditions: RNA concentration 10 µM; fragment concentration 200 µM; 293 K.
With `CCc1noc(C)c1C(=O)Nc1cc(C)on1` the NMR binding call was 0. `Cn1cc(C(N)=O)c(C(F)F)n1` was tested, and the NMR binding call was 0. For `Cc1cc(C(=O)Nc2ccc3[nH]ccc3c2)no1`, the NMR binding call was 0. Work on `CC(=O)NCc1cn[nH]c1` yielded an NMR binding call of 0. For `Oc1ccc(CN2CCCC2)c2cccnc12`, the NMR binding call was 0. Work on `Cc1ccccc1OCC(=O)Nc1ncccn1` yielded an NMR binding call of 0. `O=C(Nc1ccc(-n2cnnn2)cc1)C1CCC1` was tested, and the NMR binding call was 0. For `CS(=O)(=O)Nc1ccc(CN)cc1.Cl`, the NMR binding call was 0. Compound `CC(C)C(=O)NCc1nc2ccccc2[nH]1` has an NMR binding call of 0. Work on `CNC(=O)Nc1nc2ccc(OC)cc2s1` yielded an NMR binding call of 1. `CC(=O)Nc1ccc2[nH]c(=O)[nH]c2c1` gave an NMR binding call of 0. With `CNC(=O)c1nc2ccccc2c(=O)[nH]1` the NMR binding call was 0. In the case of `c1ccc(CNC2CCNC2)cc1` (stereo not given), the NMR binding call is reported as 0. `CC1CCC(NC2CCC(O)CC2)CC1` (stereo not given) was tested, and the NMR binding call was 0. In the case of `Cc1cccc(CN2CCOCC2)c1`, the NMR binding call is reported as 0. `Cl.Cl.O=C(c1ccncc1)N1CCNCC1` gave an NMR binding call of 0. Work on `COCC(=O)Nc1nc(-c2ccccc2)cs1` yielded an NMR binding call of 0. `Cc1ccc(N2CCN(C(N)=O)CC2)cc1` showed an NMR binding call of 0. In the case of `O=C(NCCc1ccc(O)cc1)c1ccccn1`, the NMR binding call is reported as 0. `O=C1CN(C(=O)COc2ccccc2)CCN1` gave an NMR binding call of 0. `COc1ccc(CN2CCOCC2)cc1OC` showed an NMR binding call of 0. For `NCc1ccc(-c2cccs2)cc1`, the NMR binding call was 0. Compound `CC1CCCN(C(=O)CO)C1` (stereo not given) has an NMR binding call of 0. For `O=C(NO)c1ccc2ccccc2n1`, the NMR binding call was 0. Compound `COC(=O)C1CCN(CC(N)=O)CC1` has an NMR binding call of 0. `CN(C)Cc1nc(C2(N)CCCC2)no1` showed an NMR binding call of 0. Compound `Cc1ccc(NC(=O)C2CCCO2)nc1` (stereo not given) has an NMR binding call of 0. `CS(=O)(=O)c1nccn1Cc1cscn1` showed an NMR binding call of 0. `CC(CO)(CO)NC(=O)Nc1ccccc1` gave an NMR binding call of 0. `CN1CCN(c2ccc(C#N)cc2)CC1` showed an NMR binding call of 0. `CC(=O)c1ccc(OC(F)F)cc1` was tested, and the NMR binding call was 0. `Cc1ccc(OCC(=O)Nc2cc(C)on2)cc1` showed an NMR binding call of 0. Compound `Cl.NC1CCN(S(=O)(=O)c2ccccc2)C1` (stereo not given) has an NMR binding call of 0. Work on `Cc1cc(CN(C)C(=O)NC2CC2)no1` yielded an NMR binding call of 0. `CC(C)NCc1ccc(N(C)C)cc1` showed an NMR binding call of 0. In the case of `CC(=O)Nc1ccc(NC(=O)C2CC2(C)C)cc1` (stereo not given), the NMR binding call is reported as 0. `CCOC(=O)c1sc(N(C)C(C)=O)nc1C` was tested, and the NMR binding call was 0. With `Cc1cc(N2CCNCC2)nc(C)n1` the NMR binding call was 0. In the case of `CC(=O)Nc1cc(C)n[nH]1`, the NMR binding call is reported as 0. For `OCc1ccc(-n2cnc3ccccc32)cc1`, the NMR binding call was 0.
